# In all, about 300,000 compounds went through this assay and about 3,700 (1.2%) were called active. Inconclusive means that the source gave no clear call. Such entries were picked first, then a sample of the others. The call rests on the fitted dose curve; tested in HEK293 cells. Where the call is inconclusive, the potency comes from a doubtful curve fit.
# Experiment: qHTS for Inhibitors of binding or entry into cells for Lassa Virus; further: nearly all actives have a fitted effect of over 50% in size
# Conditions: Lassa virus pseudotype entry inhibition, cell reporter; activity change, negative = inhibition: at 37.9 µM (top of the series) unless noted
# On the % scale 0 is the no-effect control and ±100 the full control effect; potency means the concentration at half of the fitted maximal effect.
Structure (SMILES),Potency,"activity change, negative = inhibition"
COc1ccc(NC(=S)N(CCCN2CCOCC2)C(C)c2cc3cccc(OC)c3o2)cc1 (stereo not drawn),"inconclusive: 12.6 µM [inhibitor, partial curve]",
CCOc1ccccc1N(CC)C(=O)c1ccc2c(=O)n3c(nc2c1)CCCCC3,,inactive: -8.13% [at 46.1 µM]
COc1cccc(/C=N\NC(=O)C2=NNC(=O)C2C)c1O (stereo not drawn),"inconclusive: 3.66 µM [inhibitor, single point]",
Cc1cc(S(=O)(=O)Nc2ccc(C(=O)NCC3(N4CCCCC4)CCCCC3)cc2)ccc1F,"inconclusive: 35.5 µM [inhibitor, partial curve, poor fit]",
COCCN1C(=O)C(=O)/C(=C(/O)c2ccc(C)cc2)C1c1ccccn1 (stereo not drawn),"inconclusive: 35.5 µM [activator, single point]",
Nc1nonc1-c1nc2ccccc2n1CC(=O)Nc1ccccc1C(=O)O,,inactive: -26.8% [at 46.1 µM]
O=C(O)/C(=C/c1ccc(Cl)c([N+](=O)[O-])c1)c1ccc(S(=O)(=O)N2CCCCC2)s1,,inactive: 0.268% [at 46.1 µM]
COc1ccc(Cc2nnc(NC(=O)c3cccc(C)c3)s2)cc1,"inconclusive: 20 µM [inhibitor, partial curve, poor fit]",
O=C(O)c1ccc(COc2ccc(/C=N/NC(=O)c3cccs3)cc2)cc1,"inconclusive: 23.1 µM [activator, single point]",
Cc1cccc(-n2cccc2)c1C#N,"inconclusive: 29.1 µM [activator, single point]",
COC(=O)c1ccc2c(c1)sc(=NC(=O)CCS(=O)(=O)c1ccccc1)n2C,,inactive: 0.891%
CCc1ccc(CN2CCC(n3nccc3NC(=O)C3CCCC3)CC2)cc1,"inconclusive: 15.8 µM [inhibitor, single point]",
O=C(Nc1ccc(N2CCN(C(=O)c3ccco3)CC2)c(Cl)c1)c1cccs1,"inconclusive: 31.6 µM [inhibitor, single point]",
O=C(Nc1nccs1)c1ccc(-c2ccccc2[N+](=O)[O-])o1,"inconclusive: 35.5 µM [inhibitor, single point]",
Cc1ccc(C(=O)OCC(=O)N(CCc2ccccc2)Cc2ccccc2)cc1S(=O)(=O)N1CCOCC1,"inconclusive: 14.1 µM [inhibitor, partial curve, poor fit]",
O=C(Cn1[nH]c(=O)c2ccccc2c1=O)Nc1cccc(-c2nnc3n2CCCCC3)c1,"inconclusive: 0.0046 µM [activator, full curve, poor fit]",
CCOC(=O)C1=C(CSc2nc3c(cc2C#N)CN(C)CC3)OC(N)=C(C#N)C1c1ccccc1 (stereo not drawn),,inactive: 7.68%
CC(C)NC(=O)CCSc1nc(-c2ccc3c(c2)OCO3)cc(C(F)(F)F)n1,"inconclusive: 3.16 µM [inhibitor, partial curve, poor fit]",
CCCCn1c(N)c(N(CCC(C)C)C(=O)C2CSC3(C)CCC(=O)N23)c(=O)[nH]c1=O (stereo not drawn),"inconclusive: 0.708 µM [activator, single point]",
CC(=O)Nc1ccc(NC(=O)C(C)OC(=O)CNC(=O)c2cccs2)cc1 (stereo not drawn),"inconclusive: 2 µM [inhibitor, partial curve, poor fit]",
O=c1[nH]c2ccccc2n1CCCN1CCC(n2c(=O)[nH]c3cc(Cl)ccc32)CC1,"inconclusive: 5.8 µM [inhibitor, partial curve]",
CC(C)N(Cc1ccccc1)S(=O)(=O)c1ccc(N2CCCCS2(=O)=O)cc1,"inconclusive: 35.5 µM [inhibitor, single point]",

Structure (SMILES),Potency,"activity change, negative = inhibition"
Cc1cc2nn(-c3ccccc3)nc2cc1NC(=O)Cc1ccc(Cl)cc1,"inconclusive: 35.5 µM [activator, single point]",
S=C(NCc1ccc(Cl)cc1)NC1CCN(Cc2ccccc2)CC1,"inconclusive: 11.2 µM [inhibitor, single point]",
COC(=O)Cn1cc(C(=O)OC)cc(Br)c1=O,,inactive: 6.36%
NS(=O)(=O)c1ccc(NC(=O)/C=C/c2cn(-c3ccccc3)nc2-c2cccc(Cl)c2)cc1,"inconclusive: 11.2 µM [inhibitor, partial curve, poor fit]",
c1ccc(Oc2ncnc3oc(-c4ccccc4)cc23)cc1,,inactive: -0.516%
CCOc1ccc2nc(NC(=O)c3nc(SC(C)C)ncc3Cl)sc2c1,,inactive: -8.7% [at 46.1 µM]
COc1cccc(-c2csc(N3CCN(C(=S)Nc4ccccc4Cl)CC3)n2)c1,"inconclusive: 29.1 µM [inhibitor, single point]",
COc1ccc(C2C(C(=O)OC(C)C)=C(C)N=c3s/c(=C\c4cccs4)c(=O)n32)cc1 (stereo not drawn),,inactive: -12.8%
COc1ccc(CNC(=O)Oc2ccccc2)cc1Cl,"inconclusive: 22.4 µM [inhibitor, single point]",
CCOC(=O)C1CCN(CC(=O)Nc2c(C(=O)OC)[nH]c3ccc(Cl)cc23)CC1,"inconclusive: 12.6 µM [inhibitor, partial curve, poor fit]",
CSc1ccc(/C=C(/NC(=O)c2ccco2)C(=O)NCc2ccco2)cc1,,inactive: -13.6%
Cc1sc2nc(SCC(=O)C(C)(C)C)n(Cc3ccco3)c(=O)c2c1C,active: 8.2 µM,
N#Cc1ccccc1Cn1c(SCC(=O)NCc2ccccc2)nc2ccccc21,"inconclusive: 25.1 µM [inhibitor, single point]",
CCCCNc1nc(N(C)c2ccccc2)nc(-n2ccnc2)n1,"inconclusive: 18.3 µM [inhibitor, partial curve]",
OC(CN1CCN(c2cccc(C(F)(F)F)c2)CC1)c1c[nH]c2ccccc12 (stereo not drawn),"inconclusive: 35.5 µM [inhibitor, single point]",
CC(=O)c1ccc(N2Cc3ccccc3C2=NC(=O)c2cccs2)cc1,active: 7.94 µM,
O=C(c1ccc(-c2ccccc2)cc1)N1CCN(c2ncccn2)CC1,,inactive: -10.5%
CCOC(=O)Nc1ccc2c(c1)N(C(=O)CCN1CCOCC1)c1ccccc1S2=O (stereo not drawn),,inactive: -5.9%
CCN(CC)c1ccc(/C=N/c2sc3c(c2C#N)C2CCN3CC2)c(O)c1,,inactive: -26.1%
CC1=NN(Cc2ccccc2)C(=O)C1C(c1ccccc1)C(C#N)C#N (stereo not drawn),,inactive: -18.8%
Cc1cccc(NC(=S)NNC(=O)c2nn(C)cc2Cl)c1,"inconclusive: 2.51 µM [activator, full curve, poor fit]",

# Sorted by length of the SMILES (ascending): part of the list above
Structure (SMILES),Potency,"activity change, negative = inhibition"
COc1cccc(/C=N\NC(=O)C2=NNC(=O)C2C)c1O (stereo not drawn),"inconclusive: 3.66 µM [inhibitor, single point]",
O=C(Cn1[nH]c(=O)c2ccccc2c1=O)Nc1cccc(-c2nnc3n2CCCCC3)c1,"inconclusive: 0.0046 µM [activator, full curve, poor fit]",
CCCCn1c(N)c(N(CCC(C)C)C(=O)C2CSC3(C)CCC(=O)N23)c(=O)[nH]c1=O (stereo not drawn),"inconclusive: 0.708 µM [activator, single point]",
